From PMC10163288
The list shows a part of the results.

B1: il10ra_site1_sap_28_mot_HHH_b2_01776_000000118_0001_38_52_H_._HHH_b1_02755_0001_0000100001_0000001_0_0001_af2pred_dldesign_0_af2pred (protein)
chain: SSSSMKEWLERALANTRQLIDLGYKEEAAKALEYLEAVAKIENNPEFLARLEELRARLAELSSSS
B2: il10ra_site1_sap_15_mot_HHH_b2_07336_af2_000000224_0001_1_17_H_._HHH_b2_03461_af2_0001_0000300012_0000001_0_0001 (protein)
chain: SSSSDELEEELIKLLEELLHAYVEGDEELIEKLLEEVKKIAEEANNRAARKSLEAIERALSSSSS
B3: il10ra_site1_normal_mot_HHH_b2_00564_af2_000000012_0001_18_34_H_._HHH_b2_05650_0001_0000300024_0000001_0 (protein)
chain: SSSSSTEELYEFARRLAELLHEGDKDEVRELLEEAKQLAEELNNENIEEQLKFIERLVERSSSSS
B4: il10ra_site1_sap_15_mot_b26a303360aa2756ef5b79665ce52f45_0001_000000179_0001_1_11_H_._HHH_b1_01396_0001_0000100011_0000001_0_0001_af2pred_0001 (protein)
chain: SSSSDVEEELEELLEEAKRIEDLDRAAYVLIRAFALATERRDPELEEFVKRAALEISEEGSSSSS
B5: il10ra_site1_normal_mot_HHH_b1_03094_000000294_0001_1_20_H_._HHH_b2_05552_0001_0000300030_0000001_0 (protein)
chain: SSSSDAEEVLELIIRAFRALLRGDPEEAEKLVEEAKEIAEENNDPELEKAVEILEEAVRAQSSSS
B6: il10ra_site1_sap_8_mot_HHH_b1_05357_000000034_0001_23_39_H_._HHH_b1_00439_af2_0001_0000200019_0000001_0_0001 (protein)
chain: SSSSSVEERLAELMLEAVRLAAKENDPEEAREVLEEVERLAEENNDEELQRYLKILEHFVNSSSS
B7: il10ra_site1_normal_mot_HHH_b1_02397_af2_000000085_0001_39_57_H_._HHH_b2_07534_0001_0000300029_0000001_1 (protein)
chain: SSSSDEEEEELRRLLEEVEELLERGDPEEAARVTQELLRLIFRLRDEEALKRLHELFMRAASSSS
B8: il10ra_site1_normal_mot_HHH_b1_00999_000000080_0001_41_55_H_._HHH_b1_03194_0001_0000200012_0000001_0 (protein)
chain: SSSSSSDVEELLEELEELLEQGNKEEALEILQRALQLAYRRSDPELLKLLWEFAKRLGSSSSSSS
B9: il10ra_site1_normal_mot_HHH_b2_04679_000000194_0001_21_38_H_._HHH_b1_02740_0001_0000100005_0000001_0 (protein)
chain: SSSSQEAYRLVRRAIEEAARLFREGNPEEARRLLEEALEQLEELGNFAAVFAIRNLLRALSSSSS
B10: il10ra_site1_sap_16_mot_HHH_b1_04708_000000195_0001_1_19_H_._HHH_b1_06392_0001_0000100003_0000002_0_0001_af2pred_0001 (protein)
chain: SSSDEKSRLALEAAKLSLKYLLEQGNEKVAEAAVRLAKAALELLGDEEAVEELERYFEELRSSSS
B11: il10ra_site1_normal_mot_HHH_b1_03859_af2_000000004_0001_44_57_H_._HHH_b2_05239_0001_0000100004_0000003_1_af2pred_dldesign_0_af2pred (protein)
chain: SSSSNEEARAIIRRTLEAARQIPAEEARKALAYARAMAEALGDEELLAELERVEAEIEAESSSSS
B12: il10ra_site1_sap_20_mot_HHH_b1_06804_000000054_0001_40_54_H_._HHH_b2_04909_0001_0000200021_0000001_0_0001 (protein)
chain: SSSSDRAREVYELSRRIAELLSRGDREEAEELLERARELIEELGDRLLKFILELLERQVNSSSSS
B13: il10ra_site1_normal_mot_HHH_b2_01656_000000035_0001_1_20_H_._HHH_b2_07112_0001_0000100008_0000001_0 (protein)
chain: SSSSDEEFEKVRELYKEAKELYENGNPEEAQRLLEELLRELEELGNWVRVFSVRHALRVLSSSSS
B14: il10ra_site1_sap_20_mot_HHH_b2_00297_af2_000000255_0001_43_56_H_._49a7c9051cacde34b31d84fabeb7f3ea_0001_af2_0001_0000900009_0000001_0_0001_af2pred_0001 (protein)
chain: SSSSDETEELVRILREVAELHHEGDPEEAERLLEEAEELAREAGNVIAEVIIEFLQKQLKSSSSS
B15: il10ra_site1_sap_32_mot_HHH_b1_05088_af2_000000046_0001_20_36_H_._HHH_b2_04743_0001_0000100005_0000002_0_0001 (protein)
chain: SSSSTEEAREVYELLRRIVELDHEGNPEEAKELAEEAEELARRGNNDVMLEQVKYLERLLNSSSS
B16: il10ra_site1_sap_25_mot_HHH_b1_03531_000000273_0001_41_54_H_._HHH_b1_06918_0001_0000100004_0000002_0_0001 (protein)
chain: SSSSSDEEIREEVEELLEEAKQISDADKRYRLLREAVELAAKLNDPELYKLVLEASRELFSSSSS
B17: il10ra_site1_sap_24_mot_HHH_b1_03613_af2_000000245_0001_1_20_H_._HHH_b2_03420_0001_0000300038_0000001_1_0001 (protein)
chain: SSSSSDFEKELEELLKELEELVREGDRERFAKVALRIIRLAFQGSDEEALQELWKLVQEYNSSSS
B18: il10ra_site1_normal_mot_HHH_b1_06837_000000150_0001_20_37_H_._HHH_b1_03571_0001_0000100005_0000001_0 (protein)
chain: SSSSDEEARRLYELARRISELDHEGNPEEARELLEELEKLAEEANNELFKFLVKHLEKVLRSSSS
B19: il10ra_site1_normal_mot_HHH_b1_05139_af2_000000007_0001_1_19_H_._HHH_b2_08055_0001_0000200014_0000001_0_af2pred_0001 (protein)
chain: SSSSDTDEEAKETIRHYLEFALELGDEEALRDALELAEKVAKILNDEELERLVREAEEELSSSSS
B20: il10ra_site1_sap_24_mot_HHH_b1_05426_000000183_0001_42_56_H_._HHH_b1_02346_af2_0001_0000200015_0000002_0_0001_af2pred_0001 (protein)
chain: SSSSTEEFIRLSEKFAKFLLEQGDPEAARFILEAAAEVARRDGNEEALERLEELLREVEEKSSSS
B21: il10ra_site1_normal_mot_HHH_b1_06994_000000193_0001_40_55_H_._HHH_b2_01117_0001_0000100003_0000002_0 (protein)
chain: SSSSDQEEELVRAAIRLLEQALKAGDEELARFLYWSAQLLAEELNDPELEKEIERVFEEGSSSSS
B22: il10ra_site1_sap_13_mot_e1dd4851c59bc1cdde016f988f6856bd_0001_1_000000200_0001_16_31_H_._HHH_b1_08578_0001_0000200030_0000001_0_0001 (protein)
chain: SSSSSEEEEYIRLALRFLRWLVEVGDEESLKRMHKAIKEMIERANNEELQELLEKVEKELSSSSS
B23: il10ra_site1_normal_mot_HHH_b2_00984_000000042_0001_1_20_H_._HHH_b1_02950_0001_0000100001_0000002_0 (protein)
chain: SSSSSDKFRELAQRALQLAFRLSDEETLQRIWELIKEYAEKGDPRIEEELEELLEELEERSSSSS
B24: il10ra_site1_sap_18_mot_HHH_b1_02397_af2_000000085_0001_39_57_H_._HHH_b2_06048_0001_0000300031_0000002_0_0001 (protein)
chain: SSSSSHDERYLELALRFLKWLLEVGDEESVKKTLRAVKHLAEQLNDEEVEEQLREVEERISSSSS

Target: il10ra, Q13651
Assay: yeast display titration

Apparent Kd, inactive:
B1 no binding seen
B2 no binding seen
B3 no binding seen
B4 no binding seen
B5 no binding seen
B6 no binding seen
B7 no binding seen
B8 no binding seen
B9 no binding seen
B10 no binding seen
B11 no binding seen
B12 no binding seen
B13 > 4.1 µM
B14 no binding seen
B15 no binding seen
B16 no binding seen
B17 no binding seen
B18 no binding seen
B19 no binding seen
B20 no binding seen
B21 no binding seen
B22 no binding seen
B23 no binding seen
B24 no binding seen

2 records drawn at random from those above:
Apparent Kd, inactive:
B19 no binding seen
B2 no binding seen
